One may read the AC50 as the concentration giving half of the maximal activity seen.

The results in this text go back to PubChem BioAssay AID493014 (National Center for Advancing Translational Sciences (NCATS), 2011).

This experiment is described as follows: qHTS Assay to Find Inhibitors of Chronic Active B-Cell Receptor Signaling. To be noted: ABC-DLBCL IkBa-CBG/CBR reporter, luminescence ratio (green luciferase fused to IkBa over red control in TMD8 lymphoma cells), 4 h. In a few lines:
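Doxycycline induced both beetle luciferases in TMD8 lymphoma cells; IKK-driven degradation limits the IkappaBalpha-fused green signal, while red luminescence normalises for cell number and nonspecific effects. Compounds tested up to 46 uM, 4 hrs.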

Setting [1] is: measured here: CBR red luminescence, cell number.
The mark [2] stands for this setting: measured here: IkBa-CBG green luminescence.

The other results are listed elsewhere or left out. The main result of the screen is listed elsewhere. These columns were measured beside it and carry no call. Most of these compounds were active or inconclusive in the main read-out, so they are no random draw. Potencies come from curve fits of mixed quality, noted in brackets.

With `CCOCCCNC(=O)c1c(C)c(C(=O)OCC)n(C)c1C`, the AC50 under setting [1] is 6.51 µM [rising, single point].

As to `Cc1cc(C)c2cc3c(ccn3C3OC[C@H](O)[C@H](O)[C@H]3O)cc2n1` (stereo partly drawn), under setting [1], the AC50 was 4.61 µM [falling, single point]. `COc1ccc(-n2nnc3c(SCc4ccccc4)ncnc32)cc1`: the AC50 under setting [1] was 3.55 µM [rising, single point].

As to `Cc1ccccc1Nc1nc(N)nc(COC(=O)c2cccc(S(=O)(=O)N(C)c3ccccc3)c2)n1`, the concentration at half-maximal activity (AC50) under setting [1] was 29.1 µM [falling, single point]. Still for that read-out and setting: for `COCc1cc(=O)c2ccccc2o1` the value was 8.2 µM [rising, partial curve, poor fit]. The same measure, in the same setting: the figure for `Cc1ccccc1NC(=S)N1CCCN(Cc2ccc(F)cc2)C1` is 14.1 µM [falling, partial curve]; for `CCCOc1ccc(CNC(=O)Cn2ncc3ccccc32)cc1` it is 12.6 µM [falling, partial curve, poor fit]. With `c1ccc2[nH]c(CN3CCCCC3)nc2c1`, the AC50 under setting [1] was 1.16 µM [rising, full curve, poor fit].

Consider `O=C(CN1CCCCC1)c1c[nH]c2ccccc12`, for which the AC50 under setting [1] is 10 µM [falling, partial curve]. The same measure, in the same setting: the figure for `Cc1ccc(Cl)cc1N1CCN(S(C)(=O)=O)CC1` is 0.651 µM [rising, full curve, poor fit]. On the same count and under the same terms, the figure for `CC(C)c1ccc(-n2cnn(-c3ncccc3[N+](=O)[O-])c2=O)cc1` is 35.5 µM [falling, single point]. In the case of `COc1cc2c(cc1OC)C(c1ccc3c(c1)OCO3)CC(=O)N2` (stereo not drawn), the AC50 under setting [1] was 0.259 µM [rising, partial curve, poor fit]. On the same count and under the same terms, the figure for `Cc1cc(C(=O)CSc2nnnn2C)c(C)n1-c1ccc2c(c1)OCCO2` is 11.6 µM [rising, single point]. The same measure, in the same setting: for `O=c1oc2ccc(Cl)cc2cc1-c1ccccc1` the value was 0.651 µM [rising, full curve]. For the molecule `CCCCNC(=O)CSc1nc2ccc(N3CCOCC3)cc2c(=O)n1CCc1ccccc1`, under setting [1], the AC50 is 18.4 µM [falling, single point]. The same measure, in the same setting: for `COc1ccc2c(=O)c3c(=O)n(-c4ccccc4)c(-c4ccc(C)cc4)nc3oc2c1` the value was 0.794 µM [falling, full curve]; for `CCC(C)NCCOCCOc1ccc(F)cc1` (stereo not drawn), 8.2 µM [rising, partial curve, poor fit]. On the same count and under the same terms, for `O=C1c2cccc3cccc(c23)C(=O)N1CC1CCCO1` (stereo not drawn) the value was 5.01 µM [falling, partial curve, poor fit]; for `COc1ccc(CCNc2cc(C)[nH]c(=O)c2)cc1OC`, 0.447 µM [rising, full curve, poor fit]; for `COc1ccc2[nH]c(C(=O)Nc3ccc4c(c3)OCO4)cc2c1`, 2.82 µM [falling, full curve, poor fit]. As for `O=C(O)c1cc(N/N=C/c2cccnc2)ccc1Cl`, under setting [1], the concentration at half-maximal activity (AC50) is 10 µM [falling, partial curve]. Still for that read-out and setting: for `O=C(Oc1ccc(Cl)c2cccnc12)c1cccnc1` the value was 22.4 µM [rising, partial curve, poor fit]; for `Cc1nc(NC(=O)/C=C/c2ccco2)sc1C`, 1.84 µM [falling, full curve, poor fit]. On to `COc1ccc(/C=C2/SC(=O)N(CCNC(=O)CC(NC(C)=O)c3ccccc3)C2=O)cc1` (stereo not drawn), for which, under setting [1], the concentration at half-maximal activity (AC50) was 31.6 µM [rising, single point]. Still for that read-out and setting: for `COc1ccc(C(=O)Nc2nnc(CCc3ccccc3)s2)c(OC)c1` the value was 12.6 µM [rising, partial curve, poor fit]. In the case of `CCSc1nnc(NC(=O)c2cc(C)oc2C)s1`, under setting [1], the AC50 is 0.651 µM [falling, partial curve, poor fit].

Take `C[C@H](NC(=O)c1nc[nH]c1C(=O)NCCCCCNC(=O)OC(C)(C)C)c1ccccc1`: under setting [1], the AC50 is 29.1 µM [falling, single point]. Take `Nc1c(C(=O)CSc2nccn2-c2ccc(Cl)cc2)c(=O)[nH]c(=O)n1C1CC1`: the AC50 under setting [1] is 23.1 µM [falling, single point]. On the same count and under the same terms, the figure for `C/C(=N\NC(=O)Cc1ccc(Br)cc1)c1cccnc1` is 22.4 µM [rising, single point]; for `CN(CC(=O)Nc1ccccc1C(F)(F)F)CC(=O)N1CCCCCC1` it is 29.1 µM [rising, single point]; for `Cc1ccc(CNC(=O)C(=O)c2cn(CC(=O)N3CCCC3)c3ccccc23)cc1` it is 0.794 µM [falling, full curve]. Regarding `Cn1c(CCc2nc3ccccc3[nH]2)nnc1SCC#N`, the AC50 under setting [1] is 15.8 µM [falling, partial curve, poor fit]. On to `COc1ccccc1/C=C/C(=O)NNC(=O)c1cc(C)oc1C`, for which, under setting [1], the AC50 was 8.2 µM [falling, partial curve]. Consider `CCC(=O)Oc1c(C(=O)CC)cc2c(C)cc(=O)oc2c1C`, for which the AC50 under setting [1] was 3.66 µM [falling, partial curve, poor fit]. On the same count and under the same terms, for `Nc1ncnc2c1c(-c1ccc(Oc3ccccc3)cc1)cn2C1CCCC1` the value was 0.731 µM [falling, full curve]. Regarding `CC(C)C1=C2OC(N)=C(C#N)C(C#N)=C2C(C)CC1` (stereo not drawn), the AC50 under setting [1] was 17.8 µM [rising, partial curve, poor fit].

As to `COc1ccc(NC(=O)N(C)C[C@H]2Oc3ccc(NC(=O)CCN4CCOCC4)cc3C(=O)N([C@@H](C)CO)C[C@H]2C)cc1`, under setting [1], the AC50 is 0.146 µM [rising, full curve, poor fit]. For `CCOc1ccc(CNC(=O)C(=O)c2cn(CC(=O)N3CCOCC3)c3ccccc23)cc1OC`, the AC50 under setting [1] was 8.91 µM [falling, partial curve]. Regarding `CCOC(=O)c1c(C)[nH]c(C)c1C(=O)COC(=O)c1cc2ccccc2cc1O`, the AC50 under setting [1] is 5.17 µM [rising, single point]. Consider `CC(=O)Nc1ccc2nc(NC(=O)CS(=O)(=O)c3ccccc3)sc2c1`, for which the AC50 under setting [1] was 23.1 µM [falling, partial curve, poor fit].

Turning to `O=C(O)CC1SC(=O)N(Cc2ccccc2)C1=O` (stereo not drawn), under setting [1], the AC50 was 14.1 µM [rising, single point].

Turning to `CC(NS(=O)(=O)c1cc2c3c(c1)CCC(=O)N3CCC2)c1ccccc1` (stereo not drawn), the AC50 under setting [1] was 9.2 µM [falling, partial curve, poor fit]. `CSc1ccccc1NC(=O)CN1CCN(S(=O)(=O)c2ccccc2[N+](=O)[O-])CC1`: the AC50 under setting [1] was 29.1 µM [falling, single point]. Turning to `O=C(Nc1ccc(F)cc1)Nc1ccccc1N1CCCCC1`, the AC50 under setting [1] is 7.08 µM [falling, partial curve, poor fit]. Regarding `C=CCOc1ccc2oc(=O)cc(C)c2c1`, the AC50 under setting [1] was 18.4 µM [rising, partial curve, poor fit].

On to `CN(C(=O)c1cc2sccc2n1C)C1CCCCC1`, for which, under setting [1], the AC50 was 23.1 µM [falling, single point].

Take `COc1ccccc1Nc1nc(-c2cccs2)cs1`: the AC50 under setting [1] was 0.316 µM [rising, full curve, poor fit]. Same read-out and setting: for `O=C(COc1ccc(F)cc1)NCC1(N2CCCCC2)CCCCC1` the value was 0.116 µM [rising, full curve, poor fit].

Consider `CCN(CC)c1ccc2c(C)c(CO)c(=O)oc2c1`, for which the AC50 by setting is: under setting [1], 12.6 µM [rising, partial curve, poor fit]; under setting [2], 12.6 µM [falling, partial curve]. With `O=C(Nc1cccc(Cl)c1)c1cc(S(=O)(=O)N2CCOCC2)cs1`, under setting [1], the AC50 is 6.31 µM [falling, single point].

With `CCc1nnc(NC(=O)c2cccc(S(=O)(=O)N(C)c3ccccc3)c2)s1`, under setting [1], the AC50 is 18.4 µM [falling, single point].

Regarding `Cc1cccc(NC(=S)N/N=C/C(C)c2ccccc2)c1C` (stereo not drawn), the half-maximal activity concentration (AC50) under setting [2] was 35.5 µM [falling, partial curve, poor fit].

For `Cc1cccc(-c2nnn(Cc3nnc(NC(=O)c4ccccc4)s3)n2)c1`, under setting [1], the AC50 was 4.47 µM [rising, partial curve, poor fit].

For the molecule `CC(=O)Nc1cccc(NC(=O)CSc2ncc(C(=O)Nc3ccccc3)c(=O)n2C)c1`, under setting [1], the AC50 was 18.4 µM [falling, partial curve, poor fit].

Regarding `O=C1C(C=NCC2CCCO2)=C(O)c2ccccc21` (stereo not drawn), the AC50 under setting [1] was 31.6 µM [falling, single point]. In the case of `COC(=O)C(C(=O)Nc1nc2ccccc2s1)C1CCCC1` (stereo not drawn), the AC50 is, setting by setting: under setting [1], 10 µM [falling, partial curve, poor fit]; under setting [2], 15.8 µM [rising, partial curve, poor fit]. Regarding `COc1ccc(Br)cc1-c1noc(-c2ccncc2)n1`, the AC50 under setting [1] is 0.731 µM [rising, full curve, poor fit]. Take `CN(C)c1ccc(/C=N/NC(=O)c2ccccc2O)o1`: the AC50 under setting [1] was 7.08 µM [falling, partial curve]. In the case of `CC(C)Cc1nc(SCC(=O)NCc2ccccc2)n[nH]1`, the AC50 under setting [1] was 29.1 µM [rising, single point].

Consider `O=C(N/N=C/c1cccc([N+](=O)[O-])c1)c1cccs1`, for which the AC50 runs as follows: under setting [1], 20.6 µM [falling, single point]; under setting [2], 18.4 µM [falling, single point]. As for `O=C(c1cc2cc(F)ccc2[nH]1)N1CCc2ccccc2C1`, the AC50 under setting [1] is 0.1 µM [rising, full curve, poor fit]. In the case of `c1ccc(CC2CCN(c3nc4ccccc4n4nnnc34)CC2)cc1`, the AC50 under setting [1] is 20.6 µM [falling, single point]. Take `CCOc1ccc(Nc2nc(N(C)c3ccccc3)nc(N)c2[N+](=O)[O-])cc1`: the AC50 under setting [1] was 0.631 µM [rising, full curve, poor fit]. Same read-out and setting: for `CCOc1ncccc1C(=O)OCC(=O)Nc1cc(S(=O)(=O)N2CCOCC2)ccc1C` the value was 3.26 µM [rising, partial curve]; for `COc1ccc(NC2=C(C)C(=O)CC2)cc1`, 29.1 µM [rising, single point].
